Common to all, as to test: DAPPL (digital affinity profiling via proximity ligation, sequencing)
Common to all, as to settings: 10 mM Tris-HCl pH 7.5, 50 mM NaCl, 1 mM DTT, 4% glycerol, room temperature, 30 min; GST-TFs on glutathione beads, 16-mer random dsDNA library, 0.1% …; high values mean tight binding; double strand, one strand shown; scale: fold enrichment (6-mer frequency, TF over GST control)

In assay [1] the target is T1, ELK1 (UniProt P19419).
T1 sequence: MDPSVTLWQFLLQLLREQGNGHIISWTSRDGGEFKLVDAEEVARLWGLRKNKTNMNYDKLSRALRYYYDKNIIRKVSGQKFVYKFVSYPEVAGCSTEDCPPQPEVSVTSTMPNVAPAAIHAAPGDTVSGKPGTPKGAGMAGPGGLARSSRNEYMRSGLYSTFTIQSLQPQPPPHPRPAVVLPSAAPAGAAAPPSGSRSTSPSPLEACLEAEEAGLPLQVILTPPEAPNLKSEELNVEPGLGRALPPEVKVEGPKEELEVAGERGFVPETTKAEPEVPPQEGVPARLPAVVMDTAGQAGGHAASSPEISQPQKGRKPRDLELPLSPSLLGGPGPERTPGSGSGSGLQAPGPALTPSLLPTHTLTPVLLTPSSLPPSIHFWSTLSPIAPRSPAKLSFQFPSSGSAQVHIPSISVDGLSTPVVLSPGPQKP

Assay [2] deals with T2, ELK3 (UniProt P41970).
T2 sequence: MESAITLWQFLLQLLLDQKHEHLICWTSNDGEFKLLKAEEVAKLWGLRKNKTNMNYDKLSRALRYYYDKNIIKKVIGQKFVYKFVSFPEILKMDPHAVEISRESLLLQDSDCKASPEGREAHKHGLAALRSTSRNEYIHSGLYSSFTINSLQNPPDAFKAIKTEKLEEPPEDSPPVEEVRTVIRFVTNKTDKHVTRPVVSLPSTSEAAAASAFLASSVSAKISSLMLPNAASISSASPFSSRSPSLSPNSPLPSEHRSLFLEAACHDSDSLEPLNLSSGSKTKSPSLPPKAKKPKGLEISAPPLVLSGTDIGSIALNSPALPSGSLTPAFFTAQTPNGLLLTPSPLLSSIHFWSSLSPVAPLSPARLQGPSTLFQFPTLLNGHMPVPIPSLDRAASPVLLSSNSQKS

The target of assay [3] is T3, SPIC (UniProt Q8N5J4).
T3 sequence: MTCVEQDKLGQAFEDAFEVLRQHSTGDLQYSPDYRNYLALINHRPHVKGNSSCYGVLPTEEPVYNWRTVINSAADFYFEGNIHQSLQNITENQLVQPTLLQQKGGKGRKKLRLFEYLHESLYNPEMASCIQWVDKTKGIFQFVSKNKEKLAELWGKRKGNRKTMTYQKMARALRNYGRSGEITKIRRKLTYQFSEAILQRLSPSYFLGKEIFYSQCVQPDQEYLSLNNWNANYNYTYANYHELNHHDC

Assay [4] deals with T4, ETS2 (UniProt P15036).
T4 sequence: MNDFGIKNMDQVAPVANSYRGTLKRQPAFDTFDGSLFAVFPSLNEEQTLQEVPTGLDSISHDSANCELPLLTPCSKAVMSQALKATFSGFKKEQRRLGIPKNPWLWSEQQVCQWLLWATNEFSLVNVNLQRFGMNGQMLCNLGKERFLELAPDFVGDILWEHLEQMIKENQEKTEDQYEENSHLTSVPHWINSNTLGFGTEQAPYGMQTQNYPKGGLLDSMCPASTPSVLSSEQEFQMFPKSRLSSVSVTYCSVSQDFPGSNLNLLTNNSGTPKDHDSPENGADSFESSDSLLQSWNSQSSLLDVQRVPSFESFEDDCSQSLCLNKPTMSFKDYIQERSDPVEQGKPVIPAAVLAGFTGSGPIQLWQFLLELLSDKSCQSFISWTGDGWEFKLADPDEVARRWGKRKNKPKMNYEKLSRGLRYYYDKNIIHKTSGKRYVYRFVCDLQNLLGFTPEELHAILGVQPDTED

Assay [5] addresses T5, ETV3 (UniProt P41162-2).
T5 sequence: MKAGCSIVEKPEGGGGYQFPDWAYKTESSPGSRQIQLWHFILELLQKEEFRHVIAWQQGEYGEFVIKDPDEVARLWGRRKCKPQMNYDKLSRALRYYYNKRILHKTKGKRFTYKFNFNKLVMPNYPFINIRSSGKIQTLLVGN

This is a selection; strong and weak results do not stand in their true shares. At the low end of the ranking the order means little.

With GGCAGT, the binding signal in assay [1] stood at 0.53; in assay [2], 0.575; in assay [3] it was 0.521; in assay [4] it was 0.504; in assay [5], 0.529.

As to ATAGGA, the binding signal in assay [1] amounted to 0.767; in assay [2], 0.841; in assay [3] it was 0.854; in assay [4], 0.823; in assay [5], 0.878.

Regarding GAGAAG, the binding signal in assay [1] came to 0.698; in assay [2], 0.722; in assay [3], 0.798; in assay [4], 0.692; in assay [5] it was 0.691.

With CCAGCG, the binding signal in assay [1] was 0.667; in assay [2], 0.741; in assay [3] it was 0.668; in assay [4] it was 0.678; in assay [5], 0.682.

With GGCGGT, the binding signal in assay [1] was 0.421; in assay [2], 0.439; in assay [3], 0.454; in assay [4] it was 0.41; in assay [5] it was 0.412.

With TAGGTG, the binding signal in assay [1] turned out to be 0.97; in assay [2], 0.986; in assay [3], 0.849; in assay [4], 0.893; in assay [5] it was 0.861.

On to GTGAAC, for which the binding signal turned out to be 0.832 in assay [1]; 0.774 in assay [2]; 0.821 in assay [3]; 0.821 in assay [4]; 0.816 in assay [5].

Consider AGACTG, for which the binding signal in assay [1] is 0.515; in assay [2] it was 0.546; in assay [3] it was 0.457; in assay [4], 0.522; in assay [5], 0.562.

Turning to CAGACA, the binding signal came to 0.81 in assay [1]; 0.723 in assay [2]; 0.803 in assay [3]; 0.804 in assay [4]; 0.822 in assay [5].

AGAGCC: the binding signal in assay [1] was 0.67; in assay [2], 0.776; in assay [3], 0.723; in assay [4], 0.65; in assay [5], 0.724.

Consider GGTCGA, for which the binding signal amounted to 0.786 in assay [1]; 0.733 in assay [2]; 0.775 in assay [3]; 0.774 in assay [4]; 0.776 in assay [5].

Consider CAGCGG, for which the binding signal is 0.461 in assay [1]; 0.508 in assay [2]; 0.478 in assay [3]; 0.479 in assay [4]; 0.412 in assay [5].

In the case of GGGCCG, the binding signal in assay [1] came to 0.593; in assay [2], 0.607; in assay [3], 0.605; in assay [4], 0.64; in assay [5], 0.591.

In the case of TGTAGT, the binding signal came out at 0.969 in assay [1]; 0.958 in assay [2]; 0.915 in assay [3]; 0.964 in assay [4]; 0.945 in assay [5].

With ATGGAG, the binding signal in assay [1] amounted to 0.529; in assay [2], 0.513; in assay [3], 0.589; in assay [4] it was 0.576; in assay [5], 0.544.

As for CACCAG, the binding signal in assay [1] was determined as 0.795; in assay [2], 0.701; in assay [3], 0.761; in assay [4], 0.726; in assay [5], 0.75.

In the case of GACGAT, the binding signal in assay [1] turned out to be 0.853; in assay [2] it was 0.951; in assay [3], 0.917; in assay [4], 0.928; in assay [5], 0.841.

Regarding CAGTCT, the binding signal stood at 0.744 in assay [1]; 0.713 in assay [2]; 0.762 in assay [3]; 0.738 in assay [4]; 0.696 in assay [5].

For TAGGGA, the binding signal amounted to 0.866 in assay [1]; 0.766 in assay [2]; 0.923 in assay [3]; 0.839 in assay [4]; 0.859 in assay [5].

Consider CGGTAC, for which the binding signal in assay [1] worked out at 0.921; in assay [2], 0.889; in assay [3] it was 0.947; in assay [4], 0.978; in assay [5] it was 0.942.

With TCGTGG, the binding signal in assay [1] amounted to 0.758; in assay [2], 0.725; in assay [3], 0.654; in assay [4], 0.778; in assay [5], 0.74.

With GGACCG, the binding signal in assay [1] stood at 0.87; in assay [2], 0.748; in assay [3] it was 0.701; in assay [4], 0.766; in assay [5], 0.816.

As to AGATTG, the binding signal in assay [1] worked out at 0.885; in assay [2], 0.891; in assay [3] it was 0.856; in assay [4] it was 0.801; in assay [5] it was 0.769.

As for CGGCGA, the binding signal in assay [1] came out at 0.737; in assay [2] it was 0.698; in assay [3], 0.658; in assay [4] it was 0.777; in assay [5] it was 0.757.

Take GCCAGT: the binding signal in assay [1] came out at 0.316; in assay [2] it was 0.288; in assay [3], 0.288; in assay [4], 0.311; in assay [5], 0.313.

For the sequence TGTGTC, the binding signal in assay [1] was determined as 0.683; in assay [2] it was 0.666; in assay [3], 0.717; in assay [4], 0.796; in assay [5] it was 0.771.

In the case of AGACAA, the binding signal in assay [1] stood at 0.846; in assay [2] it was 0.792; in assay [3] it was 0.813; in assay [4] it was 0.8; in assay [5], 0.784.

As to TCGTGC, the binding signal came out at 0.752 in assay [1]; 0.807 in assay [2]; 0.748 in assay [3]; 0.776 in assay [4]; 0.823 in assay [5].

For the sequence TCGTAG, the binding signal in assay [1] amounted to 0.885; in assay [2], 0.631; in assay [3] it was 0.899; in assay [4], 0.858; in assay [5] it was 0.807.

For the sequence CATGAG, the binding signal amounted to 0.674 in assay [1]; 0.785 in assay [2]; 0.722 in assay [3]; 0.728 in assay [4]; 0.702 in assay [5].
